Reference: article PMC7979925
Where a chain is given by its changes, count along the chain named. No constants are given. Whether binding was seen depends on the method and setting. In cells and extracts the contact can be indirect. Some results given as binding are weak or reduced against the parent protein; the word gives no strength.

Amino acid sequences for entries named in this document (tags omitted).
UniProt A0A3L7IGC1: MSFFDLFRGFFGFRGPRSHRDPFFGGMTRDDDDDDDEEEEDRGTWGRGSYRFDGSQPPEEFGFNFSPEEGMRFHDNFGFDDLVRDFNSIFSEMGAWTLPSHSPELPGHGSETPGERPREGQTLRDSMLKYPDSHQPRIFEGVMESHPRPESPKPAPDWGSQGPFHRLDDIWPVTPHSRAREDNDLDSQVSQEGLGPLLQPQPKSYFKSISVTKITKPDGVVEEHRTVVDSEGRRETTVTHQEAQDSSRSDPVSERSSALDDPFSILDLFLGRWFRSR

Assays:
[1] = molecular target: T1, G592R Kv3.3 mutant channel (UniProt Q14003); assay: condition: only cells preincubated for 30 min with 10 μM MRT67307 (TBK1 inhibitor); co-IP; as a1, but cells preincubated for 30 min with 10 μM MRT67307 (TBK1 inhibitor) before lysis
T1 sequence: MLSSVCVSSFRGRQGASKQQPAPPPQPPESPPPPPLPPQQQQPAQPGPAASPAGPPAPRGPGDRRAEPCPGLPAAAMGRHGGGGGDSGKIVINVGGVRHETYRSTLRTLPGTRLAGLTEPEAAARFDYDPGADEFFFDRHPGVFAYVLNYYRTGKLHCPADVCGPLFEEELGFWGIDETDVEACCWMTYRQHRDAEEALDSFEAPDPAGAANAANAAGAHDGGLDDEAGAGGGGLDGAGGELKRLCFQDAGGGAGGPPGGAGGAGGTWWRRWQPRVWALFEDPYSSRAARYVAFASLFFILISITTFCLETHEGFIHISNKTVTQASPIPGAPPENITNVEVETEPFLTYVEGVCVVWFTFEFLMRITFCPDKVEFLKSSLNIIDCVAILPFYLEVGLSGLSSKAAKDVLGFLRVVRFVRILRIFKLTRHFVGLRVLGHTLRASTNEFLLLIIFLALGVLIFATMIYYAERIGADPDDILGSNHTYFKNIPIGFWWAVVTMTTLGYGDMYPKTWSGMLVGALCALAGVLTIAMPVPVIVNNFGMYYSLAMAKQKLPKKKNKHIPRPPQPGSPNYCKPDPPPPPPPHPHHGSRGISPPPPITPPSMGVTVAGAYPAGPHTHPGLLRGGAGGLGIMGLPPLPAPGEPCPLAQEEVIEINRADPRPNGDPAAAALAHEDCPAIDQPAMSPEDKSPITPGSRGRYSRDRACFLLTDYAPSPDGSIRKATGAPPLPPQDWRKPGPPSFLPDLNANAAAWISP

[2] = molecular target: T2, wild type Kv3.3 potassium channel (UniProt Q14003); assay: as above
T2 sequence: T1 sequence with R592G

[3] = molecular target: T1, G592R Kv3.3 mutant channel; assay: co-IP; lysates of CHO cells expressing Kv3.3 constructs (25 mM Tris-HCl pH 7.4, 150 mM NaCl, 1% NP-40, 1 mM EDTA, 5% glycerol); primary antibody overnight at 4 °C, protein A/G beads 2 h at 4 °C, six washes; Western blot
[4] = molecular target: T2, wild type Kv3.3 potassium channel; assay: as above

- binding [1]: no binding
- binding [2]: no binding
- binding [3]: binds
- binding [4]: binds
Substance: Hax-1 (from UniProt A0A3L7IGC1 1-277)
